{"source": "PubChem BioAssay AID1508588, Peter MacCallum Cancer Centre – 2020", "purpose": "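Which gene losses make BRAF-mutant melanoma cells more responsive to vemurafenib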 (primary screen)", "cell system": "human WM266.4 melanoma cells (BRAF V600 mutant)", "reagent": "siRNA pool against human genes, 40 nM", "duration": "96 h from transfection to read-out", "challenge": "vemurafenib 300 nM (about IC25), added 48 h after transfection, for 48 h; comparison arm got DMSO vehicle only", "read-out": "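Cell gain (DAPI nuclei at end minus before drug, mean of two replicates) and medium lactate by absorbance per cell, both as ratio to non-targeting siRNA, also grouped into fold-change classes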", "reading the numbers": "cell gain with vemurafenib: higher = more cell gain than with non-targeting siRNA; lactate per cell with vemurafenib: higher = more lactate made per cell", "hit rule": "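Enhancement is called by pairing each knock-down's vehicle-arm and drug-arm fold-change classes for viability or glycolysis; which class combinations qualify is not given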", "calls": "active = enhances vemurafenib effect; inactive = no enhancement seen", "note": "The deposit covers about 18,000 reagents; shown is an unselected part. 790 of them (4.4%) count as active. 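Calls rest on a combination of fold-change classes in drug and vehicle arms, not all shown here.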"}
{"Target gene": "CPVL (carboxypeptidase vitellogenic like)", "cell gain with vemurafenib": 0.98, "lactate per cell with vemurafenib": 0.58, "outcome": "inactive"}
{"Target gene": "TELO2 (telomere maintenance 2)", "cell gain with vemurafenib": 0.43, "lactate per cell with vemurafenib": 1.3, "outcome": "inactive"}
{"Target gene": "MDK (midkine)", "cell gain with vemurafenib": 0.54, "lactate per cell with vemurafenib": 1.79, "outcome": "inactive"}
{"Target gene": "CORO2B (coronin 2B)", "cell gain with vemurafenib": 0.61, "lactate per cell with vemurafenib": 0.6, "outcome": "inactive"}
{"Target gene": "LYRM1 (LYR motif containing 1)", "cell gain with vemurafenib": 0.77, "lactate per cell with vemurafenib": 1.12, "outcome": "inactive"}
{"Target gene": "MUSK (muscle associated receptor tyrosine kinase)", "cell gain with vemurafenib": 0.3, "lactate per cell with vemurafenib": 0.86, "outcome": "inactive"}
{"Target gene": "CRYBB1 (crystallin beta B1)", "cell gain with vemurafenib": 0.38, "lactate per cell with vemurafenib": 0.92, "outcome": "inactive"}
{"Target gene": "TFPT (TCF3 fusion partner)", "cell gain with vemurafenib": 0.86, "lactate per cell with vemurafenib": 0.92, "outcome": "inactive"}

Continued; the last 2 above are carried over.
{"Target gene": "CRYBB1 (crystallin beta B1)", "cell gain with vemurafenib": 0.38, "lactate per cell with vemurafenib": 0.92, "outcome": "inactive"}
{"Target gene": "TFPT (TCF3 fusion partner)", "cell gain with vemurafenib": 0.86, "lactate per cell with vemurafenib": 0.92, "outcome": "inactive"}
{"Target gene": "VSTM1 (V-set and transmembrane domain containing 1)", "cell gain with vemurafenib": 0.21, "lactate per cell with vemurafenib": 0.84, "outcome": "inactive"}
{"Target gene": "VAMP1 (vesicle associated membrane protein 1)", "cell gain with vemurafenib": 0.12, "lactate per cell with vemurafenib": 2.46, "outcome": "inactive"}
{"Target gene": "SAXO4 (stabilizer of axonemal microtubules 4)", "cell gain with vemurafenib": 0.58, "lactate per cell with vemurafenib": 0.56, "outcome": "inactive"}
{"Target gene": "PATE2 (prostate and testis expressed 2)", "cell gain with vemurafenib": 0.5, "lactate per cell with vemurafenib": 0.94, "outcome": "inactive"}
{"Target gene": "PPP2R5D (protein phosphatase 2 regulatory subunit B'delta)", "cell gain with vemurafenib": 0.54, "lactate per cell with vemurafenib": 1.13, "outcome": "inactive"}
{"Target gene": "CITED2 (Cbp/p300 interacting transactivator with ED-rich tail 2)", "cell gain with vemurafenib": 0.68, "lactate per cell with vemurafenib": 0.72, "outcome": "inactive"}
{"Target gene": "PFN3 (profilin 3)", "cell gain with vemurafenib": 0.4, "lactate per cell with vemurafenib": 1.43, "outcome": "inactive"}
{"Target gene": "POPDC1 (popeye domain cAMP effector 1)", "cell gain with vemurafenib": 0.89, "lactate per cell with vemurafenib": 0.63, "outcome": "inactive"}
